Drawing on PubChem BioAssay AID188 (DTP/NCI, 2004), this text covers survivor count for four compounds.

Shown are survivors of the treated group in tumour-free mice. Counts of survivors are from the toxicity check (mostly the fifth day) where no day follows; animals may have died later. Schedules are NCI's codes, read here as Q, the interval in days (D) or hours (H), X, the number of doses.

The test system of this experiment is CD2F1 mice, nontumored, toxicity/survival. The experiment in a line: NCI In Vivo Anticancer Drug Screen. Data for tumor model Nontumored Animals (Toxicity Test) in CD2F1 (CDF1) mice.

Regarding `C[C@]12CC[C@H](OC(=O)Cc3ccc(N(CCCl)CCCl)cc3)CC1=CC[C@@H]1[C@@H]2CC[C@]2(C)C(=O)CC[C@@H]12`, the survivor count is on record as 8 of 8 (dose: 16.0 mg/kg/injection, schedule: Q03HX024 (ip), vehicle: saline); 8 of 8 (dose: 32.0 mg/kg/injection, schedule: Q03HX008 (ip), vehicle: saline); 8 of 8 (dose: 32.0 mg/kg/injection, schedule: Q03HX016 (ip), vehicle: saline); 8 of 8 (dose: 32.0 mg/kg/injection, schedule: Q03HX024 (ip), vehicle: saline); 8 of 8 (dose: 64.0 mg/kg/injection, schedule: Q01DX009 (ip), vehicle: saline); 8 of 8 (dose: 64.0 mg/kg/injection, schedule: Q01DX009 (sc), vehicle: saline). The survivor count (dose: 64.0 mg/kg/injection, schedule: Q03HX008 (ip), vehicle: saline) is 8 of 8; the survivor count (dose: 64.0 mg/kg/injection, schedule: Q03HX016 (ip), vehicle: saline) is on record as 8 of 8; the survivor count (dose: 64.0 mg/kg/injection, schedule: Q03HX024 (ip), vehicle: saline) is given as 8 of 8; the survivor count (dose: 128.0 mg/kg/injection, schedule: Q01DX009 (ip), vehicle: saline) is 8 of 8; the survivor count (dose: 128.0 mg/kg/injection, schedule: Q01DX009 (sc), vehicle: saline) was 8 of 8; the survivor count (dose: 128.0 mg/kg/injection, schedule: Q03HX008 (ip), vehicle: saline) is 8 of 8. In addition, the survivor count reads like this: (dose: 128.0 mg/kg/injection, schedule: Q03HX016 (ip), vehicle: saline) 8 of 8; (dose: 128.0 mg/kg/injection, schedule: Q03HX024 (ip), vehicle: saline) 7 of 8; (dose: 128.0 mg/kg/injection, schedule: Q04DX003 (ip), vehicle: saline) 8 of 8; (dose: 256.0 mg/kg/injection, schedule: Q01DX001 (ip), vehicle: saline) 8 of 8; (dose: 256.0 mg/kg/injection, schedule: Q01DX001 (sc), vehicle: saline) 8 of 8; (dose: 256.0 mg/kg/injection, schedule: Q01DX009 (ip), vehicle: saline) 8 of 8. Further, the survivor count is, setting by setting: (dose: 256.0 mg/kg/injection, schedule: Q01DX009 (oral), vehicle: saline) 8 of 8; (dose: 256.0 mg/kg/injection, schedule: Q01DX009 (sc), vehicle: saline) 8 of 8; (dose: 256.0 mg/kg/injection, schedule: Q03HX008 (ip), vehicle: saline) 8 of 8; (dose: 256.0 mg/kg/injection, schedule: Q03HX016 (ip), vehicle: saline) 8 of 8; (dose: 256.0 mg/kg/injection, schedule: Q04DX003 (ip), vehicle: saline) 8 of 8; (dose: 256.0 mg/kg/injection, schedule: Q08DX002 (ip), vehicle: saline) 8 of 8. Moreover, the survivor count is, setting by setting: (dose: 512.0 mg/kg/injection, schedule: Q01DX001 (ip), vehicle: saline) 8 of 8; (dose: 512.0 mg/kg/injection, schedule: Q01DX001 (sc), vehicle: saline) 8 of 8; (dose: 512.0 mg/kg/injection, schedule: Q01DX009 (ip), vehicle: saline) 8 of 8; (dose: 512.0 mg/kg/injection, schedule: Q01DX009 (oral), vehicle: saline) 8 of 8; (dose: 512.0 mg/kg/injection, schedule: Q01DX009 (sc), vehicle: saline) 8 of 8; (dose: 512.0 mg/kg/injection, schedule: Q04DX003 (ip), vehicle: saline) 8 of 8. Moreover, the survivor count (dose: 512.0 mg/kg/injection, schedule: Q08DX002 (ip), vehicle: saline) was 8 of 8; the survivor count (dose: 1024.0 mg/kg/injection, schedule: Q01DX001 (ip), vehicle: saline) is on record as 8 of 8; the survivor count (dose: 1024.0 mg/kg/injection, schedule: Q01DX001 (sc), vehicle: saline) is listed as 8 of 8; the survivor count (dose: 1024.0 mg/kg/injection, schedule: Q01DX009 (oral), vehicle: saline) is 8 of 8; the survivor count (dose: 1024.0 mg/kg/injection, schedule: Q04DX003 (ip), vehicle: saline) was 7 of 8; the survivor count (dose: 1024.0 mg/kg/injection, schedule: Q08DX002 (ip), vehicle: saline) is 8 of 8. For the same compound, the survivor count (dose: 2048.0 mg/kg/injection, schedule: Q01DX001 (ip), vehicle: saline) is reported as 8 of 8; the survivor count (dose: 2048.0 mg/kg/injection, schedule: Q01DX001 (sc), vehicle: saline) was 8 of 8; the survivor count (dose: 2048.0 mg/kg/injection, schedule: Q01DX009 (oral), vehicle: saline) was 8 of 8; the survivor count (dose: 2048.0 mg/kg/injection, schedule: Q08DX002 (ip), vehicle: saline) is on record as 8 of 8.
Consider `C1CC(N2CC2)CCC1N1CC1` (centres undefined), for which the survivor count is reported as 10 of 10 (dose: 4.0 mg/kg/injection, schedule: Q04DX003 (ip), vehicle: saline); 10 of 10 (dose: 6.0 mg/kg/injection, schedule: Q04DX003 (ip), vehicle: saline); 10 of 10 (dose: 9.0 mg/kg/injection, schedule: Q04DX003 (ip), vehicle: saline); 10 of 10 (dose: 13.0 mg/kg/injection, schedule: Q04DX003 (ip), vehicle: saline); 6 of 10 (dose: 20.0 mg/kg/injection, schedule: Q04DX003 (ip), vehicle: saline); 3 of 10 (dose: 30.0 mg/kg/injection, schedule: Q04DX003 (ip), vehicle: saline). Moreover, the survivor count by setting is: (dose: 44.0 mg/kg/injection, schedule: Q04DX003 (ip), vehicle: saline) 0 of 10; (dose: 67.0 mg/kg/injection, schedule: Q04DX003 (ip), vehicle: saline) 0 of 10; (dose: 100.0 mg/kg/injection, schedule: Q04DX003 (ip), vehicle: saline) 0 of 10; (dose: 150.0 mg/kg/injection, schedule: Q04DX003 (ip), vehicle: saline) 0 of 10.
`O=[N+]([O-])c1ccc(-c2cnc(Br)c3ccccc23)cc1`: the survivor count (dose: 1.0 mg/kg/injection, schedule: Q01DX001 (ip), vehicle: DMSO) is reported as 2 of 2; the survivor count (dose: 10.0 mg/kg/injection, schedule: Q01DX001 (ip), vehicle: DMSO) was 2 of 2; the survivor count (dose: 100.0 mg/kg/injection, schedule: Q01DX001 (ip), vehicle: DMSO) is 2 of 2.
With `CN(C)c1nc(N(C)C)nc(N(C)C)n1`, the survivor count is, setting by setting: (dose: 8.0 mg/kg/injection, schedule: Q03HX024 (ip), vehicle: Klucel (hydroxypropylcellulose) (HPC)) 8 of 8; (dose: 16.0 mg/kg/injection, schedule: Q03HX008 (ip), vehicle: Klucel (hydroxypropylcellulose) (HPC)) 8 of 8; (dose: 16.0 mg/kg/injection, schedule: Q03HX016 (ip), vehicle: Klucel (hydroxypropylcellulose) (HPC)) 8 of 8; (dose: 16.0 mg/kg/injection, schedule: Q03HX024 (ip), vehicle: Klucel (hydroxypropylcellulose) (HPC)) 8 of 8; (dose: 32.0 mg/kg/injection, schedule: Q01DX009 (ip), vehicle: Klucel (hydroxypropylcellulose) (HPC)) 8 of 8; (dose: 32.0 mg/kg/injection, schedule: Q03HX008 (ip), vehicle: Klucel (hydroxypropylcellulose) (HPC)) 8 of 8. Besides, the survivor count reads like this: (dose: 32.0 mg/kg/injection, schedule: Q03HX016 (ip), vehicle: Klucel (hydroxypropylcellulose) (HPC)) 8 of 8; (dose: 32.0 mg/kg/injection, schedule: Q03HX024 (ip), vehicle: Klucel (hydroxypropylcellulose) (HPC)) 8 of 8; (dose: 64.0 mg/kg/injection, schedule: Q01DX009 (ip), vehicle: Klucel (hydroxypropylcellulose) (HPC)) 8 of 8; (dose: 64.0 mg/kg/injection, schedule: Q03HX008 (ip), vehicle: Klucel (hydroxypropylcellulose) (HPC)) 7 of 8; (dose: 64.0 mg/kg/injection, schedule: Q03HX016 (ip), vehicle: Klucel (hydroxypropylcellulose) (HPC)) 8 of 8; (dose: 64.0 mg/kg/injection, schedule: Q03HX024 (ip), vehicle: Klucel (hydroxypropylcellulose) (HPC)) 8 of 8. The survivor count by setting is: (dose: 64.0 mg/kg/injection, schedule: Q04DX003 (ip), vehicle: Klucel (hydroxypropylcellulose) (HPC)) 8 of 8; (dose: 128.0 mg/kg/injection, schedule: Q01DX001 (ip), vehicle: Klucel (hydroxypropylcellulose) (HPC)) 8 of 8; (dose: 128.0 mg/kg/injection, schedule: Q01DX009 (ip), vehicle: Klucel (hydroxypropylcellulose) (HPC)) 8 of 8; (dose: 128.0 mg/kg/injection, schedule: Q03HX008 (ip), vehicle: Klucel (hydroxypropylcellulose) (HPC)) 0 of 8; (dose: 128.0 mg/kg/injection, schedule: Q03HX016 (ip), vehicle: Klucel (hydroxypropylcellulose) (HPC)) 0 of 8; (dose: 128.0 mg/kg/injection, schedule: Q03HX024 (ip), vehicle: Klucel (hydroxypropylcellulose) (HPC)) 0 of 8. Besides, the survivor count runs as follows: (dose: 128.0 mg/kg/injection, schedule: Q04DX003 (ip), vehicle: Klucel (hydroxypropylcellulose) (HPC)) 8 of 8; (dose: 128.0 mg/kg/injection, schedule: Q08DX002 (ip), vehicle: Klucel (hydroxypropylcellulose) (HPC)) 8 of 8; (dose: 256.0 mg/kg/injection, schedule: Q01DX001 (ip), vehicle: Klucel (hydroxypropylcellulose) (HPC)) 8 of 8; (dose: 256.0 mg/kg/injection, schedule: Q01DX009 (ip), vehicle: Klucel (hydroxypropylcellulose) (HPC)) 4 of 8; (dose: 256.0 mg/kg/injection, schedule: Q04DX003 (ip), vehicle: Klucel (hydroxypropylcellulose) (HPC)) 8 of 8; (dose: 256.0 mg/kg/injection, schedule: Q08DX002 (ip), vehicle: Klucel (hydroxypropylcellulose) (HPC)) 8 of 8. Moreover, the survivor count (dose: 512.0 mg/kg/injection, schedule: Q01DX001 (ip), vehicle: Klucel (hydroxypropylcellulose) (HPC)) is 7 of 8; the survivor count (dose: 512.0 mg/kg/injection, schedule: Q01DX009 (ip), vehicle: Klucel (hydroxypropylcellulose) (HPC)) is listed as 0 of 8; the survivor count (dose: 512.0 mg/kg/injection, schedule: Q04DX003 (ip), vehicle: Klucel (hydroxypropylcellulose) (HPC)) is given as 8 of 8; the survivor count (dose: 512.0 mg/kg/injection, schedule: Q08DX002 (ip), vehicle: Klucel (hydroxypropylcellulose) (HPC)) was 8 of 8; the survivor count (dose: 1024.0 mg/kg/injection, schedule: Q01DX001 (ip), vehicle: Klucel (hydroxypropylcellulose) (HPC)) is given as 0 of 8; the survivor count (dose: 1024.0 mg/kg/injection, schedule: Q04DX003 (ip), vehicle: Klucel (hydroxypropylcellulose) (HPC)) is 0 of 8. In addition, the survivor count (dose: 1024.0 mg/kg/injection, schedule: Q08DX002 (ip), vehicle: Klucel (hydroxypropylcellulose) (HPC)) is on record as 0 of 8.
